PubChem BioAssay AID652272, Drosophila RNAi Screening Center | 2013
Screen: 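Genes whose knock-down decreases or increases Hedgehog reporter output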 (primary screen). System: Drosophila clone 8 (Cl8) cells. Reagents: long dsRNA against Drosophila genes. Measured: 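Firefly light from a Hedgehog-responsive ptc promoter reporter and Renilla reference light, both read on a plate reader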. Scale: firefly Hh reporter signal: higher = more ptc reporter light; Renilla reference signal: higher = more Renilla control light. Hit rule: 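Hit when the z-score averaged over two replicates is under -2 or over +3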. Meaning of the calls: active = hit: reporter lowered or raised; inactive = not a hit.
The deposit covers about 21,000 reagents; shown is an unselected part of those that have a named target and a result. Over the whole deposit, 503 (2.4%) are marked active. 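Raw plate light values, not normalised; calls rest on replicate z-scores that were not deposited; hits include reporter decreases as well as increases.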 A number with no mark means an inactive call. Not given: the amount of reagent, the time to read-out.

Against l(2)34Fd [DRSC01911], the entry reads firefly Hh reporter signal, replicate 1 = 88788; firefly Hh reporter signal, replicate 2 = 43987; Renilla reference signal, replicate 1 = 3846; Renilla reference signal, replicate 2 = 2330.
After knock-down of ATPsynbetaL [DRSC10503] the results were firefly Hh reporter signal, replicate 1 = 1.32e5; Renilla reference signal, replicate 1 = 5936; Renilla reference signal, replicate 2 = 3426.
CG43098 [DRSC08051] gave firefly Hh reporter signal, replicate 1 = 1.05e5; firefly Hh reporter signal, replicate 2 = 1.92e5; Renilla reference signal, replicate 1 = 2940; Renilla reference signal, replicate 2 = 7684.
Silencing of Grip91 [DRSC20249] gave: firefly Hh reporter signal, replicate 1 = 58619; firefly Hh reporter signal, replicate 2 = 43985; Renilla reference signal, replicate 1 = 1180; Renilla reference signal, replicate 2 = 832.
PGRP-LA [DRSC10327] showed firefly Hh reporter signal, replicate 1 = 36102; firefly Hh reporter signal, replicate 2 = 44224; firefly Hh reporter signal, replicate 3 = 82880; Renilla reference signal, replicate 1 = 2986; Renilla reference signal, replicate 2 = 5361.
With knock-down of PGRP-LA [DRSC10414], the record shows firefly Hh reporter signal, replicate 1 = 37853; firefly Hh reporter signal, replicate 2 = 53238; firefly Hh reporter signal, replicate 3 = 73560; Renilla reference signal, replicate 1 = 4763; Renilla reference signal, replicate 2 = 6343.
Fhos [DRSC08943] showed firefly Hh reporter signal, replicate 1 = 82794; firefly Hh reporter signal, replicate 2 = 1.93e5; Renilla reference signal, replicate 1 = 2138; Renilla reference signal, replicate 2 = 7040.
With knock-down of Fhos [DRSC10545], the record shows firefly Hh reporter signal, replicate 1 = 1.27e5; firefly Hh reporter signal, replicate 2 = 74092; Renilla reference signal, replicate 1 = 5184; Renilla reference signal, replicate 2 = 3139.
Fhos [DRSC10546] gave firefly Hh reporter signal, replicate 1 = 1.56e5; firefly Hh reporter signal, replicate 2 = 99474; Renilla reference signal, replicate 1 = 6173; Renilla reference signal, replicate 2 = 4008.
Fhos [DRSC10547] showed firefly Hh reporter signal, replicate 1 = 65860; firefly Hh reporter signal, replicate 2 = 79043; Renilla reference signal, replicate 1 = 5941; Renilla reference signal, replicate 2 = 6737.
Against Ppt2 [DRSC02786] the deposit lists firefly Hh reporter signal, replicate 1 = 68162; firefly Hh reporter signal, replicate 2 = 44896; Renilla reference signal, replicate 1 = 3381; Renilla reference signal, replicate 2 = 2071.
With knock-down of CG7430 [DRSC10845], the screen gave firefly Hh reporter signal, replicate 1 = 1.14e5; firefly Hh reporter signal, replicate 2 = 52246; Renilla reference signal, replicate 1 = 4441; Renilla reference signal, replicate 2 = 2288.
Depletion of CG4596 [DRSC15608] resulted in: firefly Hh reporter signal, replicate 1 = 64868; firefly Hh reporter signal, replicate 2 = 1.39e5; Renilla reference signal, replicate 1 = 1852; Renilla reference signal, replicate 2 = 4439.
Knock-down of CG7785 [DRSC16311] gave: firefly Hh reporter signal, replicate 1 = 4.95e5; firefly Hh reporter signal, replicate 2 = 65213; Renilla reference signal, replicate 1 = 25837; Renilla reference signal, replicate 2 = 1860.
